In patent publication US20230094162A1 one finds binding data, which are given here for one molecule.

Protein sequences, listed by entry. Tags and fused reporters are not part of them. Residues count along the entry.
UniProt Q9NZQ7, residues 19-290: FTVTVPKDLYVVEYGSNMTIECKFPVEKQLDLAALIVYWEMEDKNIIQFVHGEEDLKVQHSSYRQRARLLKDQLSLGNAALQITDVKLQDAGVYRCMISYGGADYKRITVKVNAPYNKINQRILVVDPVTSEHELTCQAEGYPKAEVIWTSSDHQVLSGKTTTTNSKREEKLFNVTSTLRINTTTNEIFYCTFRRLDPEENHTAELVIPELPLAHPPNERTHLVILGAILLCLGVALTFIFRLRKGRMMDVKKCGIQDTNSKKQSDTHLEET

These are yes or no findings as the source states them, for the method shown. Some entries that bind do so weakly or less than the wild type.

This test has as its target PD-L1 expressed on the cell surface (CHO/PD-L1 cells) (UniProt Q9NZQ7). As to the kind of experiment: flow cytometry (FACS) on CHO cells expressing PD-L1, MFI.

B1: hPD-L1 MAB-2F (antibody) (antibody, V domains shown)
VH: EVQLVESGGGLVQPGGSLRLSCAASGFTFSSYTMSWVRQAPGKGLEWVAYISIKGGTTYYPDTVKGRFTISRDNAKNTLYLQMNSLKTEDTAVYYCARQGLPYYGDYWGQGTLVTVSS
VL: DIQMTQSPSSLSASVGDRVTITCKASQDVNEAVAWYQQKPGKAPKLLIYWASTRHTGVPSRFSGSGSGTDFTLTISSLQPEDFATYYCQQHYNTPLTFGQGTKVEIK
For B1, the binding entry was “binds”.
